Source: PubChem BioAssay AID248 (DTP/NCI, 2004)
The list is a part of this screen's results and no random one: it is rich in T/C values a quarter to a half above the control, in often repeated tests (any T/C) and in doses without a T/C. Other doses and runs of a compound stand elsewhere. T/C: endpoint of the treated group in % of that of the vehicle group. Some doses have a count of surviving animals in place of a T/C: the source holds a T/C of zero for them, seemingly a mark for toxic or unscored doses. Some doses without a T/C left all or most animals alive at the check, yet need not have been tolerated: survival well below the control is almost never listed, so the zero probably covers shortened survival too. Survivors were counted at the toxicity check, usually on the fifth day, unless a day is given; later deaths do not show. Schedules are NCI's codes, read here as Q, the interval in days (D) or hours (H), X, the number of doses. Some doses were run more than once; the results are listed from low to high. Some schedule codes hold Z or #, which are not explained here. Where survival is the endpoint, the PubChem record calls one and a half times the control and up active, and a quarter to a half above the control has no call in these data; cut-offs in other NCI protocols can differ. Some T/C values are followed by the survivors on the day toxicity was checked, most often the fifth; where none is given, no animal had died by that day.

System: L1210 leukemia ip in BDF1 mice, survival T/C
Assay: NCI In Vivo Anticancer Drug Screen. Data for tumor model L1210 Leukemia (intraperitoneal) in B6D2F1 (BDF1) mice
Settings: T/C endpoint: mean survival time, higher T/C = longer survival
[1] = dose: 400.0 mg/kg/injection, schedule: Q01DX009 (ip), vehicle: saline with Tween-80
[2] = dose: 400.0 mg/kg/injection, schedule: Q04DX003 (ip), vehicle: Klucel (hydroxypropylcellulose) (HPC)
[3] = dose: 400.0 mg/kg/injection, schedule: Q01DX001 (ip), vehicle: saline
[4] = dose: 400.0 mg/kg/injection, schedule: Q04DX003 (ip), vehicle: saline with Tween-80
[5] = dose: 300.0 mg/kg/injection, schedule: Q01DX001 (ip), vehicle: saline
[6] = dose: 100.0 mg/kg/injection, schedule: Q01DX009 (ip), vehicle: Klucel (hydroxypropylcellulose) (HPC)
[7] = dose: 50.0 mg/kg/injection, schedule: Q04DX002 (ip), vehicle: saline
[8] = dose: 100.0 mg/kg/injection, schedule: Q01DX001 (ip), vehicle: saline
[9] = dose: 150.0 mg/kg/injection, schedule: Q01DX001 (ip), vehicle: saline
[10] = dose: 200.0 mg/kg/injection, schedule: Q01DX001 (ip), vehicle: saline

SMILES: CC(=O)Nc1ccc(-c2ccccc2)cc1
- survivor count (dose: 400.0 mg/kg/injection, schedule: Q01DX001 (ip), vehicle: Klucel (hydroxypropylcellulose) (HPC)): 1 of 6
- survivor count [1]: 0 of 6

SMILES: O=[N+]([O-])c1ccc2ncccc2c1
- survivor count [2]: 0 of 6

SMILES: CCCCSc1n[nH]c(=O)[nH]c1=S
- survivor count [3]: 2 of 6

SMILES: CC(C)(C)C(=O)CN
- T/C (dose: 100.0 mg/kg/injection, schedule: Q04DX002 (ip), vehicle: saline, evaluated on day 20): 105 % of control
- T/C (dose: 100.0 mg/kg/injection, schedule: Q04DX002 (ip), vehicle: saline, evaluated on day 30): 98, 100, 107 % of control
- T/C (dose: 200.0 mg/kg/injection, schedule: Q04DX002 (ip), vehicle: saline, evaluated on day 20): 86 % of control
- T/C (dose: 200.0 mg/kg/injection, schedule: Q04DX002 (ip), vehicle: saline, evaluated on day 30): 105, 106, 109 % of control
- T/C (dose: 400.0 mg/kg/injection, schedule: Q04DX002 (ip), vehicle: saline, evaluated on day 20): 94 % of control
- T/C (dose: 400.0 mg/kg/injection, schedule: Q04DX002 (ip), vehicle: saline, evaluated on day 30): 97, 98, 126 % of control

SMILES: CCCC(O)c1ccc(OC)c(OC)c1 (stereo not given)
- survivor count (dose: 400.0 mg/kg/injection, schedule: Q04DX002 (ip), vehicle: Klucel (hydroxypropylcellulose) (HPC)): 1 of 3

SMILES: Cc1ccc(N=Nc2c(N)ccc3ccccc23)cc1
- survivor count (dose: 400.0 mg/kg/injection, schedule: Q01DX001 (ip), vehicle: other): 1 of 3

SMILES: Cn1c(=O)c(CBr)nc2ccccc21
- survivor count (dose: 40.0 mg/kg/injection, schedule: Q01DX015 (ip), vehicle: carboxymethylcellulose (CMC)): 0 of 6
- survivor count (dose: 80.0 mg/kg/injection, schedule: Q01DX015 (ip), vehicle: carboxymethylcellulose (CMC)): 0 of 6
- survivor count (dose: 160.0 mg/kg/injection, schedule: Q01DX015 (ip), vehicle: carboxymethylcellulose (CMC)): 0 of 6

SMILES: O=C1/C(=C/c2ccc3c(c2)OCO3)C2CCC(N2)/C1=C\c1ccc2c(c1)OCO2
- survivor count (dose: 200.0 mg/kg/injection, schedule: Q01DX001 (ip), vehicle: other): 3 of 3

SMILES: Cc1ccc(Sc2cccc3c(C)c4cccc5c4c(c23)C[S+]5c2ccc(C)cc2)cc1 (stereo not given)
- survivor count (dose: 100.0 mg/kg/injection, schedule: Q04DX003 (ip), vehicle: saline with Tween-80): 0 of 6
- survivor count (dose: 200.0 mg/kg/injection, schedule: Q04DX003 (ip), vehicle: saline with Tween-80): 1 of 6
- survivor count [4]: 0 of 6

SMILES: CC12CCC(Cl)(CC1O)C2(C)C (stereo not given)
- survivor count [5]: 3 of 6

SMILES: Nc1nc2nc(N=Nc3ccc(C(=O)O)c(O)c3)[nH]c2c(=O)[nH]1
- survivor count [2]: 2 of 6

SMILES: Cc1ccc(NC(=O)Nc2ccc(C)c(NC(=O)Nc3ccc(C)cc3C)c2)c(C)c1
- survivor count (dose: 100.0 mg/kg/injection, schedule: Q01DX009 (ip), vehicle: saline with Tween-80): 6 of 6

SMILES: O=c1[nH]c2cc(Cl)c(Cl)cc2o1
- survivor count (dose: 150.0 mg/kg/injection, schedule: Q01DX Z (ip), vehicle: carboxymethylcellulose (CMC)): 4 of 6

SMILES: CCNC(=O)Nc1ncn[nH]1
- survivor count (dose: 300.0 mg/kg/injection, schedule: Q01DX001 (ip), vehicle: carboxymethylcellulose (CMC)): 3 of 6

SMILES: Cc1cc(C)nc(NC(=O)Nc2cc(Cl)ccc2C)c1
- survivor count [6]: 3 of 3

SMILES: C[CH2][Sn]([CH2]C)([O]S(=O)(=O)CC12CCC(CC1=O)C2(C)C)[O]S(=O)(=O)CC12CCC(CC1=O)C2(C)C
- T/C (dose: 12.5 mg/kg/injection, schedule: Q01DX009 (ip), vehicle: saline): 139 % of control [2 of 3 alive]
- T/C (dose: 28.0 mg/kg/injection, schedule: Q01DX009 (ip), vehicle: saline): 126 % of control
- survivor count (dose: 50.0 mg/kg/injection, schedule: Q01DX009 (ip), vehicle: saline): 0 of 3
- T/C [7]: 127 % of control [5 of 6 alive]
- survivor count [7]: 2 of 6
- survivor count (dose: 65.0 mg/kg/injection, schedule: Q01DX001 (ip), vehicle: saline): 0 of 6
- survivor count (dose: 75.0 mg/kg/injection, schedule: Q04DX002 (ip), vehicle: saline): 1 of 6
- survivor count [8]: 0 of 6 and 2 of 6
- survivor count (dose: 100.0 mg/kg/injection, schedule: Q01DX009 (ip), vehicle: saline): 0 of 3 and 0 of 6
- survivor count (dose: 100.0 mg/kg/injection, schedule: Q04DX002 (ip), vehicle: saline): 0 of 6
- survivor count (dose: 110.0 mg/kg/injection, schedule: Q04DX002 (ip), vehicle: saline): 0 of 6
- survivor count [9]: 0 of 6
- survivor count [10]: 1 of 6
- survivor count (dose: 200.0 mg/kg/injection, schedule: Q01DX009 (ip), vehicle: saline): 0 of 6
- survivor count (dose: 225.0 mg/kg/injection, schedule: Q01DX001 (ip), vehicle: saline): 0 of 6
- survivor count (dose: 400.0 mg/kg/injection, schedule: Q01DX009 (ip), vehicle: saline): 0 of 6

SMILES: Cc1cccc(C(=O)O)c1CC1NCCC2c3ccccc3NC12 (stereo not given)
- survivor count [5]: 0 of 6

SMILES: COC(=O)C1=NC=NC1=[N+]=[N-]
- survivor count (dose: 75.0 mg/kg/injection, schedule: Q01DX001 (ip), vehicle: saline): 0 of 6
- survivor count [9]: 0 of 6
- survivor count [5]: 0 of 6

SMILES: CCCCCCCCCCCCCC[N+]1(C)CCS(=O)CC1 (stereo not given)
- survivor count [8]: 3 of 6
- survivor count [10]: 0 of 6
- survivor count [3]: 0 of 6

SMILES: N#CC1C2CCC(C2)C1CCCN (stereo not given)
- survivor count (dose: 200.0 mg/kg/injection, schedule: Q04DX003 (ip), vehicle: saline): 0 of 6
- survivor count (dose: 400.0 mg/kg/injection, schedule: Q04DX003 (ip), vehicle: saline): 0 of 6

SMILES: N#Cc1[nH]cnc1/N=N/N(CCF)CCF
- survivor count (dose: 37.0 mg/kg/injection, schedule: Q01DX009 (ip), vehicle: saline with Tween-80): 0 of 6
- survivor count (dose: 75.0 mg/kg/injection, schedule: Q04DX003 (ip), vehicle: saline with Tween-80): 1 of 6

SMILES: COc1cccc(N=CC(=O)c2ccc(C)cc2)c1
- survivor count (dose: 300.0 mg/kg/injection, schedule: Q04DX003 (ip), vehicle: Klucel (hydroxypropylcellulose) (HPC)): 4 of 6

SMILES: Cc1cc(C)c(NC(=O)Nc2ccccc2F)cc1C
- survivor count [6]: 6 of 6
- survivor count (dose: 200.0 mg/kg/injection, schedule: Q01DX009 (ip), vehicle: Klucel (hydroxypropylcellulose) (HPC)): 6 of 6
- survivor count (dose: 400.0 mg/kg/injection, schedule: Q01DX009 (ip), vehicle: Klucel (hydroxypropylcellulose) (HPC)): 5 of 6 and 6 of 6

SMILES: COc1ccc(Cl)cc1
- survivor count [1]: 4 of 6

SMILES: CCCCCCCCCCC(=O)N(CC)CC
- survivor count (dose: 400.0 mg/kg/injection, schedule: Q01DX009 (ip), vehicle: carboxymethylcellulose (CMC)): 3 of 3

SMILES: COc1cc2c[n+](C)c3c4ccccc4ccc3c2cc1OC
- survivor count (dose: 400.0 mg/kg/injection, schedule: Q01DX001 (ip), vehicle: saline with Tween-80): 3 of 3

SMILES: COc1cc(OC)c(C(=O)c2ccccc2N)c(OC)c1
- survivor count [4]: 6 of 6
